Laboratory results: patent US20180161425A1, “NOVEL PROTEIN STRUCTURE USED FOR EFFICIENT ANTIBODY PRODUCTION IN IMMUNIZATION” (priority 2014, published 2018)
Not every detail of the peptide structures is certain; ends, links or a residue may be inferred. Peptide text beside a SMILES is read from it.

System: MDCK cells
Format: cell-based

For `CC[C@H](C)[C@H](NC(=O)[C@H](CO)NC(=O)[C@H](CCCCN)NC(=O)[C@H](CO)NC(=O)[C@H](Cc1ccccc1)NC(=O)[C@H](CC(C)C)NC(=O)[C@H](CCCNC(=N)N)NC(=O)[C@@H](N)CC(=O)O)C(=O)N[C@@H](Cc1ccc(O)cc1)C(=O)N[C@@H](CCCNC(=N)N)C(=O)N[C@H](C(=O)N[C@@H](Cc1ccccc1)C(=O)N[C@@H](CCCCN)C(=O)N[C@@H](Cc1c[nH]cn1)C(=O)NCC(=O)N[C@@H](CC(C)C)C(=O)N[C@@H](CCCCN)C(=O)N[C@@H](CCCNC(=N)N)C(=O)NCC(=O)O)[C@@H](C)CC` [AH2, DRLFSKSIYRIFKHGLKRG] (H-DRLFSKSIYRIFKHGLKRG-OH), the “vesicle formation inside the cell” value was “induced vesicles formation”.
